# Out of some 340,000 compounds screened, about 6,200 (1.8%) were called active. Inconclusive means that the source gave no clear call. Such entries were picked first, then a sample of the others. The call rests on the fitted dose curve; in most records, active means well fitted activation curve with a large enough effect; inconclusive means small, poorly fitted or top-dose-only effect; inactive means no such curve, though single readings can be large or run the other way. Where the call is inconclusive, the potency comes from a doubtful curve fit.
# Assay: A quantitative high throughput screen for small molecules that induce DNA re-replication in SW480 colon adenocarcinoma cells. Further: nearly all actives have a fitted effect of over 55% in size. On re-replication activation: % of control where 0% means no effect.
# Details: Hoechst DNA content imaging, 48 h; re-replication activation: at 46.1 µM (top of the series)
# Method in brief: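 Compounds, transferred as 23 nL by pin tool, were incubated with cells for 48 hr; DNA content per nucleus was then quantified by Hoechst staining and fluorescence plate imaging.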
# Potency means the concentration at half of the fitted maximal effect.
SMILES,Potency,re-replication activation
O=C1[C@H]2CCC=C[C@H]2[C@H](c2cccc(Br)c2)N1Cc1ccccc1,"inconclusive: 14.6 µM [activator, partial curve, poor fit]",–
Nc1c(Cl)c(Cl)nc(C(=O)OCC(=O)NCc2ccccc2)c1Cl,–,inactive: -4.45%
CCOc1ccc(C2Sc3ccccc3NC3=C2C(=O)OC3)cc1 (stereo not drawn),"inconclusive: 0.631 µM [activator, full curve, poor fit]",–
Cc1ccc[n+](CC(=O)c2ccc(Br)cc2)c1,"inconclusive: 0.116 µM [activator, full curve, poor fit]",–
CSc1nc(Oc2ccc3ccccc3c2)c2ccccc2n1,"inconclusive: 29.1 µM [activator, single point]",–
Cc1cccc2c(C(=O)N3CCN(c4ccccc4)CC3)cc(-c3ccncc3)nc12,active: 6.51 µM,–
CC1CCC(NC(=O)c2nn(C)c3c2CSc2ccccc2-3)CC1 (stereo not drawn),"inconclusive: 6.51 µM [activator, full curve, poor fit]",–
CCCn1nnc(NC(=O)c2ccco2)n1,"inconclusive: 16.4 µM [activator, partial curve, poor fit]",–
Cc1cccc(NC(=O)C2COc3ccccc3O2)c1 (stereo not drawn),"inconclusive: 16.4 µM [activator, single point]",–
Cn1c(Cl)cnc1C1CC(=O)c2cc(Cl)ccc2O1 (stereo not drawn),active: 10.3 µM,–
CCOC(=O)c1c(NC(=O)CSc2nnc(-c3cccnc3)n2Cc2ccco2)sc(C)c1C,"inconclusive: 0.891 µM [activator, full curve, poor fit]",–
COc1ccc(CCNC(=O)CSc2nnc(-c3cccc(C)c3)o2)cc1OC,–,inactive: -14.7%
Cc1occc1C(=O)Nc1sc2c(c1C(N)=O)CCCCC2,–,inactive: 1.49%
C=CCc1cccc2cc(C(=O)Nc3ccc(CC(=O)O)cc3)c(=O)oc12,–,inactive: -3.05%
COc1ccc(CCN=C(N)Nc2nc(C)cc(C)n2)cc1,"inconclusive: 32.6 µM [activator, partial curve, poor fit]",–
O=S(=O)(c1ccc(N=C2NN=C(c3cc(F)ccc3F)CS2)cc1)N1CCOCC1,"inconclusive: 8.2 µM [activator, partial curve]",–
O=C1C(=O)N(CCS(=O)(=O)c2ccccc2)c2ccc(Cl)cc21,"inconclusive: 29.1 µM [activator, single point]",–
CCC(C)N(CCNC(=O)c1ccc2c(c1)NC(=O)c1ccccc1S2)C1CCCCC1 (stereo not drawn),"inconclusive: 29.1 µM [activator, single point]",–
CCCCCOC(=O)C1=C(C)NC(=O)NC1c1ccc(OC)cc1 (stereo not drawn),–,inactive: -4.45%
CCN(C[C@H]1N[C@@](C)(C(=O)OC)[C@H]2C(=O)N(C)C(=O)[C@@H]12)S(=O)(=O)c1ccc(OC)cc1,"inconclusive: 20.6 µM [activator, single point]",–
COc1ccc(/C=N/Nc2cc(C)nc(N)n2)cc1,–,inactive: -116%
CC1Sc2ccc(S(=O)(=O)CCC(=O)N(C)Cc3ccccc3)cc2NC1=O (stereo not drawn),–,inactive: -25.2%
O=C(Nc1ccc(Br)cn1)c1ccc([N+](=O)[O-])o1,"inconclusive: 0.058 µM [activator, full curve, poor fit]",–

# Some of these compounds in order of formula weight, smallest number first.
SMILES,Potency,re-replication activation
CCCn1nnc(NC(=O)c2ccco2)n1,"inconclusive: 16.4 µM [activator, partial curve, poor fit]",–
COc1ccc(/C=N/Nc2cc(C)nc(N)n2)cc1,–,inactive: -116%
Cc1cccc(NC(=O)C2COc3ccccc3O2)c1 (stereo not drawn),"inconclusive: 16.4 µM [activator, single point]",–
Cc1ccc[n+](CC(=O)c2ccc(Br)cc2)c1,"inconclusive: 0.116 µM [activator, full curve, poor fit]",–
COc1ccc(CCN=C(N)Nc2nc(C)cc(C)n2)cc1,"inconclusive: 32.6 µM [activator, partial curve, poor fit]",–
CSc1nc(Oc2ccc3ccccc3c2)c2ccccc2n1,"inconclusive: 29.1 µM [activator, single point]",–
CCCCCOC(=O)C1=C(C)NC(=O)NC1c1ccc(OC)cc1 (stereo not drawn),–,inactive: -4.45%
CCOc1ccc(C2Sc3ccccc3NC3=C2C(=O)OC3)cc1 (stereo not drawn),"inconclusive: 0.631 µM [activator, full curve, poor fit]",–
CC1CCC(NC(=O)c2nn(C)c3c2CSc2ccccc2-3)CC1 (stereo not drawn),"inconclusive: 6.51 µM [activator, full curve, poor fit]",–
O=C1C(=O)N(CCS(=O)(=O)c2ccccc2)c2ccc(Cl)cc21,"inconclusive: 29.1 µM [activator, single point]",–
C=CCc1cccc2cc(C(=O)Nc3ccc(CC(=O)O)cc3)c(=O)oc12,–,inactive: -3.05%
O=C1[C@H]2CCC=C[C@H]2[C@H](c2cccc(Br)c2)N1Cc1ccccc1,"inconclusive: 14.6 µM [activator, partial curve, poor fit]",–
Nc1c(Cl)c(Cl)nc(C(=O)OCC(=O)NCc2ccccc2)c1Cl,–,inactive: -4.45%
Cc1cccc2c(C(=O)N3CCN(c4ccccc4)CC3)cc(-c3ccncc3)nc12,active: 6.51 µM,–
CC1Sc2ccc(S(=O)(=O)CCC(=O)N(C)Cc3ccccc3)cc2NC1=O (stereo not drawn),–,inactive: -25.2%
CCC(C)N(CCNC(=O)c1ccc2c(c1)NC(=O)c1ccccc1S2)C1CCCCC1 (stereo not drawn),"inconclusive: 29.1 µM [activator, single point]",–
O=S(=O)(c1ccc(N=C2NN=C(c3cc(F)ccc3F)CS2)cc1)N1CCOCC1,"inconclusive: 8.2 µM [activator, partial curve]",–
CCN(C[C@H]1N[C@@](C)(C(=O)OC)[C@H]2C(=O)N(C)C(=O)[C@@H]12)S(=O)(=O)c1ccc(OC)cc1,"inconclusive: 20.6 µM [activator, single point]",–
CCOC(=O)c1c(NC(=O)CSc2nnc(-c3cccnc3)n2Cc2ccco2)sc(C)c1C,"inconclusive: 0.891 µM [activator, full curve, poor fit]",–

# Next structures.

SMILES,Potency,re-replication activation
O=c1[nH]cnc2c1ncn2-c1ccc(N(CCO)CCO)cc1,–,inactive: -2.43%
COc1cc(/C=C/C(=O)Nc2cc(C(F)(F)F)ccc2Cl)cc(OC)c1OC,"inconclusive: 18.4 µM [activator, single point]",–
CC(=O)Oc1cccc(O)c1,–,inactive: -0.825%
CCN1C(=O)C(=O)c2cc(C)ccc21,"inconclusive: 23.1 µM [activator, single point]",–
COCc1cc(C)nc(SCC(=O)Nc2ccccc2N2CCOCC2)c1C#N,"inconclusive: 20.6 µM [activator, single point]",–
CC[C@]12c3[nH]c4cc(CCC(=O)N(C)C)ccc4c3CCN1C(=O)[C@@H](CC(=O)NCC13CC4CC(CC(C4)C1)C3)C[C@@H]2C(=O)N1CCN(C(=O)c2ccco2)CC1,–,inactive: -1.27%
COc1ccccc1N1CCN(C(=O)c2cn(-c3ccccc3)nc2-c2cccnc2)CC1,"inconclusive: 29.1 µM [activator, single point]",–
COc1ccc(-c2nc(-c3cccs3)c(-c3cccs3)[nH]2)cc1OC,–,inactive: -1.78%
CSc1cccc(NC(=O)c2nnn(CC(=O)Nc3cc(C)cc(C)c3)c2N)c1,–,inactive: 10.8%
CC(=O)N1c2ccc(S(=O)(=O)N3CCC(C(=O)Nc4cccc(C)c4)CC3)cc2CC1C (stereo not drawn),–,inactive: -8.41%
Cc1cccc2cc(C3CC(c4ccco4)=NN3S(C)(=O)=O)c(Cl)nc12 (stereo not drawn),"inconclusive: 13 µM [activator, partial curve, poor fit]",–
CC(C)/C=C(/C(=O)c1ccc(Cl)cc1Cl)n1cncn1,"inconclusive: 29.1 µM [activator, partial curve, poor fit]",–
CCN1C(=O)[C@H]2[C@H]3CN=C(SCc4ccc(C)cc4)N3[C@@](Cc3ccccc3)(C(=O)OC)[C@H]2C1=O,"inconclusive: 0.0058 µM [activator, full curve, poor fit]",–
COc1ccc(OC)c(-n2c(SCC(=O)Nc3cccc(S(N)(=O)=O)c3)nc3ccccc3c2=O)c1,–,inactive: -10.8%
C=C(C)Cn1c(-c2ccncc2)n[nH]c1=S,"inconclusive: 0.58 µM [activator, full curve, poor fit]",–
CCn1nc(C)c(NC(=O)c2ccc(Cl)cc2)c1C,"inconclusive: 6.51 µM [activator, single point]",–
CCOC(=O)c1cc(-c2ccc3c(c2)OCO3)nc2onc(C)c12,"inconclusive: 23.1 µM [activator, single point]",–
COc1ccc(-c2ncncc2-c2csc(C)n2)c(O)c1OC,–,inactive: -1.76%
CCOC(=O)C1=C(CSc2nc3c(cc2C#N)CCC3)OC(N)=C(C#N)C1c1ccccc1 (stereo not drawn),"inconclusive: 23.1 µM [activator, partial curve, poor fit]",–
NC(=O)c1c(NC(=O)c2ccccc2)sc2c1CCC2,"inconclusive: 29.1 µM [activator, single point]",–
COCCCn1c(=N)c(C(=O)NCc2ccc3c(c2)OCO3)cc2c(=O)n3ccccc3nc21,"inconclusive: 18.4 µM [activator, partial curve, poor fit]",–
O=C1CCNCCN1[C@H](CO)c1ccccc1,–,inactive: 0.168%
CCOC(=O)CCc1c(C)c2ccc(OC3CCCCC3=O)c(C)c2oc1=O (stereo not drawn),–,inactive: -6.59%

SMILES,Potency,re-replication activation
CC(C)(C)c1ccc(C(=O)N/N=C2\C3CN4CCN(C3)CC2(c2ccccc2)C4)cc1,"inconclusive: 0.326 µM [activator, partial curve, poor fit]",–
CSc1ncccc1C(=O)NCc1ccc(C)cc1,"inconclusive: 4.11 µM [activator, full curve, poor fit]",–
NNc1nnc(-c2ccccc2)c(-c2ccccc2)n1,"inconclusive: 3.66 µM [activator, partial curve, poor fit]",–
O=C(OCC(=O)C12CC3CC(CC(C3)C1)C2)c1ccc(O)cc1O,"inconclusive: 18.4 µM [activator, single point]",–
COc1ccc(-c2csc(NC(=O)CSc3nnnn3C)n2)c(OC)c1,"inconclusive: 0.651 µM [activator, partial curve, poor fit]",–
CCOC(=O)C[C@H]1c2cc(F)ccc2S(=O)(=O)N1c1cccc(OC)c1,–,inactive: 5.53% [at 9.22 µM]
Cc1csc(N2C(=O)C3C4CCC(O4)C3C2=O)n1 (stereo not drawn),"inconclusive: 16.4 µM [activator, single point]",–
CN1C(c2ccc(F)cc2)=CS/C1=C(/C#N)c1nnc(N2CCOCC2)n1-c1ccccc1,–,inactive: -10.6%
Cc1nn(C(C)C(=O)NCCCN(Cc2ccccc2)C(C)C)c(=O)c2c1sc1ccccc12 (stereo not drawn),"inconclusive: 29.1 µM [activator, single point]",–
COc1ccccc1N1CCN(C(c2ccccc2Cl)c2nnnn2C(C)(C)C)CC1 (stereo not drawn),"inconclusive: 29.1 µM [activator, single point]",–
COc1ccc(NC(=O)c2cc(F)cc(F)c2)cc1S(=O)(=O)N1CCCCC1,–,inactive: 1.49%
Cc1csc(SCC(=O)NC2CCCCC2)n1,–,inconclusive: 31.2% [activator]
CCC1CCCCN1CCCNC(=O)c1cc2c(Cl)nc3ccccc3c2s1 (stereo not drawn),"inconclusive: 29.1 µM [activator, single point]",–
Cc1ccsc1/C=C(\C#N)C(=O)NCc1cccnc1,–,inconclusive: 55.5% [activator]
COc1cccc(Oc2nc(-c3ccccc3O)nc3ccccc23)c1,–,inactive: -9.63%
CCCCOc1ccc(C(=O)CCN2CCOCC2)cc1,"inconclusive: 23.1 µM [activator, single point]",–
Cc1ccc(S(=O)(=O)N2CCN(C(=O)CNC(=O)c3ccc(Cl)cc3)CC2)cc1,"inconclusive: 9.2 µM [activator, partial curve]",–
CC(C)CC(C(=O)NC1CCCCC1)N(Cc1ccccc1)C(=O)c1snc(C(N)=O)c1N (stereo not drawn),"inconclusive: 23.1 µM [activator, single point]",–
COc1ccc(NC(=O)C2C3C=CC4(O3)C2C(=O)N(CCCN2CCCCC2)C4C(=O)NC2CCCC(C)C2C)cc1 (stereo not drawn),"inconclusive: 18.4 µM [activator, single point]",–
CN1CCN(S(=O)(=O)c2ccc([N+](=O)[O-])cc2)CC1,"inconclusive: 10.3 µM [activator, partial curve]",–
Cc1ccc(NS(=O)(=O)c2ccc(C)c(NC(=O)COc3ccc4ccccc4c3)c2)c(C)c1,"inconclusive: 23.1 µM [activator, partial curve, poor fit]",–
COCc1cc(C)nc(SCC(=O)Nc2nc(C)cs2)c1C#N,"inconclusive: 18.4 µM [activator, single point]",–
